Experimental data: PubChem BioAssay AID1259415 (National Center for Advancing Translational Sciences (NCATS), 2018)
Screen size: about 410,000 compounds; about 18,000 (4.4%) were called active. The inconclusive results got no clear call from the source; some entries with a clear call stand among them for comparison. No stated cut-off is given here; in the data, active means activity change below about -60%; inconclusive means no clear call, values can overlap the other calls; inactive means above about -39%.

assay: qHTS Assay for inhibitors of the human cytomegalovirus (HCMV); conditions: HFF cells, HCMV-luciferase reporter, 72 h; at 57.5 µM; stronger effect = lower value
Procedure, shortened: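 Two compound doses tested in HFFs infected with HCMV-luciferase, MOI 1 PFU/cell, 72 h at 37C. Lysate luminescence read with OneGlo; data normalized against buffer-only and 10uM Salinomycin inhibitor controls.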
On the % scale 0 is the no-effect control and ±100 the full control effect.

Row | Structure (SMILES) | activity change, negative = inhibition
1 | CN(c1ccc(F)cc1)S(=O)(=O)c1ccc(Cl)c(C(=O)Nc2ccncc2)c1 | active: -65.3%
2 | COc1ccc(-n2ccnc2SCC(=O)Nc2ccc3c(c2)OCO3)cc1 | active: -74.4%
3 | CCn1c(CNS(=O)(=O)c2ccc(Cl)cc2)n[nH]c1=S | inconclusive: -41.3%
4 | Cc1ccc(S(=O)(=O)CC(=O)N(CCCN2CCOCC2)c2nc3c(F)cccc3s2)cc1 | inactive: 17%
5 | Cn1ncc([N+](=O)[O-])c1C(=O)Nc1cc(Cl)ccc1Cl | inconclusive: -42.1%
6 | Cc1ccc(S(=O)(=O)Nc2ccc3c(c2)nc(CCN2CCN(c4ccccn4)CC2)n3C)cc1 | inconclusive: -45.9%
7 | COc1ccc(C(=O)COC(=O)c2cc([N+](=O)[O-])ccc2N2CCOCC2)c(OC)c1 | inactive: 18.4%
8 | COc1cc(OC)cc(C(=O)Nc2nc(-c3ccccc3)c(-c3ccccc3)o2)c1 | inconclusive: -59.8%
9 | Cn1c(Sc2nc3ccccc3n2C)nc2ccccc21 | active: -95.1%
10 | N=c1n(CC(=O)c2ccc([N+](=O)[O-])cc2)c2ccccc2n1Cc1ccccc1Cl | inconclusive: -48.5%
11 | Cc1cccc(NC(=O)c2nc[nH]c2C(=O)N2CCN(C(=O)OC(C)(C)C)CC2)c1 | inactive: -14.5%
12 | C/C(CC(=O)Nc1cccc2c1CCCC2)=N\NC(=O)c1ccccc1N | inactive: 86.2%
13 | CC(=O)Nc1cccc(NC(=O)CSc2ccc(-c3ccco3)nn2)c1 | inactive: -17.8%
14 | CCc1nc2ccc(C(=O)NCCc3ccccn3)cn2c1N(CC)Cc1cccc(Br)c1 | inconclusive: -51.4%
15 | CC1Cc2cc(S(=O)(=O)N3CCCCC3)ccc2N1C(=O)C1CCC1 (stereo unspecified) | inactive: 26.3%
16 | CC(C)c1ccc(N2C(=O)CSC23C(=O)N(Cc2cccc(F)c2)c2ccccc23)cc1 (stereo unspecified) | inconclusive: -41.8%
17 | CC(=O)c1ccc(NC(=S)N2CCC(Cc3ccccc3)CC2)cc1 | inactive: -37.1%
18 | COc1ccccc1-n1cnnc1SCC(=O)NC1CCCCC1 | active: -82.8%
19 | CSc1ccc(Cl)c(C(=O)Nc2ccc(C)cn2)c1 | inactive: 4.18%

Row | Structure (SMILES) | activity change, negative = inhibition
20 | Cc1c(C(=O)NCc2cccnc2)oc2ccc(S(=O)(=O)N3CCCCC3)cc12 | active: -83.2%
21 | Cc1ccccc1N1CCN(c2ncnc3scc(-c4cccs4)c23)CC1 | active: -66.9%
22 | COCC(=O)OCC(=O)Nc1cc(C(C)(C)C)nn1-c1ccccc1 | inconclusive: -42.1%
23 | CCOC(=S)SCC(=O)N1CCc2cc(OC)c(OC)cc2C1C1C(=O)CC(C)(C)CC1=O (stereo unspecified) | inconclusive: -46.4%
24 | COc1ccc(/C=N/NC(=O)c2sc(C)nc2C)cc1 | inconclusive: -43.8%
25 | C=CCC(C)(NCc1ccccc1)c1ccc(C)cc1 (stereo unspecified) | inconclusive: -53.1%
26 | Fc1ccc(CSc2nnc(-c3cccs3)o2)cc1 | inconclusive: -48.2%
27 | CSc1ccc(/C=C/C(=O)NC(=O)c2ccccc2O)cc1 | inactive: 19.1%
28 | Cc1ccc(NC(=S)Nc2ccc(Cl)c(Cl)c2)c(OC(F)F)c1 | active: -74.6%
29 | COc1ccc(CC(=O)Nc2cccc(C(=O)NN3C(=O)c4ccccc4C3=O)c2C)cc1 | inconclusive: -40.7%
30 | CCCCCC(=O)NNC1CC(=O)N(c2ccccc2)C1=O (stereo unspecified) | inactive: 22.1%
31 | O=C(CN1C(=O)C2(SCC(=O)N2c2ccc(F)cc2)c2ccccc21)NC1CCCCC1 (stereo unspecified) | inactive: -3.5%
32 | CCOc1ccc(-n2cc(-c3ccccc3)c3c(NC4CCCC4)ncnc32)cc1 | inconclusive: -46.5%
33 | CCOC(=O)C1CCN(c2c(N3CCCCCC3)c(=O)c2=O)CC1 | inconclusive: -45.9%
34 | Cc1ccc(S(=O)(=O)C=CS(=O)(=O)c2ccc(C)cc2)cc1 | inconclusive: -52.4%
35 | CC1CC1c1ccc(/C=C(\C#N)C(=O)Nc2ccc(Cl)cc2Cl)o1 (stereo unspecified) | active: -64.1%
36 | Nn1c(SCC(=O)N2CCCC2)nnc1C1CCCCC1 | inconclusive: -44.2%
37 | Cc1ccc(N2C(=O)CSC23C(=O)N(CC(=O)NCc2ccccc2)c2ccccc23)cc1 (stereo unspecified) | inactive: -7.37%
38 | CC(C)(C)c1ccc(/C=C2\Oc3c(ccc(O)c3CN3CCN(CCO)CC3)C2=O)cc1 | inconclusive: -42.7%

Row | Structure (SMILES) | activity change, negative = inhibition
39 | O=C1COC(c2ccccc2O)=NN1CCCl | inactive: -23.3%
40 | C[C@H](CO)N1C[C@H](C)[C@H](CN(C)Cc2ccc(Oc3ccccc3)cc2)Oc2cc(Br)ccc2S1(=O)=O | active: -109%
41 | CSc1ccc(/C=C(\NC(=O)c2ccccc2)C(=O)NN)cc1 | inactive: 2.09%
42 | CCCCn1c(SCC(N)=O)nc2ccc(N3CCOCC3)cc2c1=O | inconclusive: -57.6%
43 | Cc1ccc(N(CC(O)Cn2c3ccccc3c3ccccc32)S(C)(=O)=O)c(C)c1 (stereo unspecified) | active: -101%
44 | COCCNC(=O)C1CC(c2cccc([N+](=O)[O-])c2)=NO1 (stereo unspecified) | inactive: 7.49%
45 | CCCc1nnc(SCC(=O)Nc2nccs2)o1 | inconclusive: -48.3%
46 | Cc1ccc2c(=O)cc(CSc3ncn[nH]3)[nH]c2c1C | inactive: -20.7%
47 | O=C(NCCCN1CCN(c2cccc(Cl)c2)CC1)c1ccc2nc(Cc3ccccc3)oc2c1 | inconclusive: -51.7%
48 | O=C(Oc1c(Cl)cc(Cl)c2cccnc12)c1cccs1 | inconclusive: -44.6%
49 | Cc1cc(C)nc(N2CCC(C(=O)NCc3cccs3)CC2)n1 | active: -93%
50 | Cn1nc(-c2ccccc2)c(CSc2ccccc2Cl)c1Cl | inconclusive: -41.4%
51 | NC(COCc1ccccc1)c1csc(NC(=O)Nc2cccc(C(F)(F)F)c2)n1 (stereo unspecified) | active: -99.8%
52 | COc1cc2c(cc1OC)n(CC(=O)c1ccc(C)cc1C)c(=O)n1nc(CCn3nc(C)cc3C)nc21 | inactive: -28.9%
53 | C=CCSc1nnc(-c2cc(C(C)(C)C)nn2Cc2ccc(F)cc2)n1C | inactive: 3.16%
54 | CC1(C)CCCC(C)(C)N1CC(O)COCCOc1ccc(Br)cc1 (stereo unspecified) | inconclusive: -47.4%
55 | Cc1c(C(C)(C)O)[nH]c2ccc(C(F)(F)F)cc12 | inconclusive: -40.3%
56 | O=C(NCC1CCCO1)c1ccc(NC(=O)C2CCCCC2C(=O)O)cc1 (stereo unspecified) | inconclusive: -41.9%

Four of these compounds, reformatted.
Cc1ccc2c(=O)cc(CSc3ncn[nH]3)[nH]c2c1C
  activity change, negative = inhibition: inactive: -20.7%
O=C(NCCCN1CCN(c2cccc(Cl)c2)CC1)c1ccc2nc(Cc3ccccc3)oc2c1
  activity change, negative = inhibition: inconclusive: -51.7%
O=C(Oc1c(Cl)cc(Cl)c2cccnc12)c1cccs1
  activity change, negative = inhibition: inconclusive: -44.6%
Cc1cc(C)nc(N2CCC(C(=O)NCc3cccs3)CC2)n1
  activity change, negative = inhibition: active: -93%
